Data on 1 compound can be found in US10238689B2, “Methods for combating bacterial infections by killing persister cells with mitomycin C and/or cisplatin” (THE PENN STATE RESEARCH FOUNDATION, priority 2015, dated 2019).

For series [1], the system named is gDNA (rrsG and murB) from BW25113 non-persisters. Put plainly: qPCR of gDNA crosslinked in vitro. The class given is biochemical, Escherichia coli. Conditions: MMC 500 μg/mL (1.5 mM).
Series [2] has as its system gDNA (rrsG and murB) of E. coli K-12 BW25113/pCA24N. Put plainly: qPCR of gDNA crosslinking in cells (in vivo). The format is cell-based, Escherichia coli. Conditions: MMC 100 μg/mL 1 h. How it is done: Overnight cultures (16 h) of E. coli K-12 BW25113/pCA24N grown in LB were diluted 1:1000 in buffered LB and grown to the desired turbidity. For exponential phase cells (i.e., non-persisters), cultures were grown to a turbidity of 2.0 at 600 nm. For rifampicin-induced persisters, cultures were grown to a turbidity of 0.8 at 600 nm, exposed to rifampicin (100 μg/mL) for 30 min, centrifuged, and resuspended in fresh medium to remove the rifampicin. Non-persister and rifampicin-induced persister cultures were treated with MMC (100 μg/mL) for 1 h. gDNA was extracted, using an UltraClean Microbial DNA Isolation Kit (MO BIO Laboratories, Carlsbad, Calif., USA), from samples taken before and after MMC treatment and 100 ng of DNA was used for qPCR of rrsG and murB using the GoTaq qPCR Master Mix (Promega, Madison, Wis., USA) and the StepOne Real-Time PCR System (Applied Biosystems, Foster City, Calif., USA) (primers are shown in Table 2). As a positive control, 3 μg of gDNA from BW25113 non-persisters was crosslinked in vitro with 500 μg/mL (1.5 mM) MMC in 0.2 mM EDTA, 50 mM NaCl, and 5 mM Tris (pH=7.6) with Na2S2O4 added six times at 10 min intervals to reach a final concentration of 2.25 mM (1.5× molarity of MMC). The in vitro crosslinking reaction was performed anaerobically on ice and the reaction was stopped by exposure to air.

With `CO[C@@]12[C@H](COC(N)=O)C3=C(C(=O)C(C)=C(N)C3=O)N1C[C@@H]1N[C@@H]12` [MMC, mitomycin C], the “Ct (after MMC)” value came to 21.18 ± 0.37 in series [1] (murB); 17.48 ± 0.01 in series [1] (rrsG); 14.20 ± 0.39 in series [2] (Non-persisters, murB); 10.57 ± 0.35 in series [2] (Non-persisters, rrsG); 15.00 ± 1.24 in series [2] (Persisters, murB); 10.74 ± 1.10 in series [2] (Persisters, rrsG).
